Measured values: PubChem BioAssay AID448 (National Center for Advancing Translational Sciences (NCATS), 2006)
Where “and” joins values, the source holds several entries; their conditions need not be identical. Equal values may be shown once. The list shows a part of the results, in another mix than the full data. Calls of active or inactive are those of the source. Calls come from the whole dose curve.

System: Schistosoma mansoni peroxiredoxin 2 (Prx2)
Experiment: Schistosoma Mansoni Peroxiredoxins (Prx2)
Settings: S. mansoni Prx2 activity coupled to TGR/GSH (TGR is thioredoxin glutathione reductase), NADPH fluorescence loss, qHTS
Source text: NIH Molecular Libraries Screening Centers Network [MLSCN]
NIH Chemical Genomics Center [NCGC]
David Williams [Illinois State University]
Schistosoma mansoni, a causative agent of schistosomiasis, resides in the bloodstream of their host up to 30 years without being eliminated by the host immune attack. One proposed survival mechanism is the production of an antioxidant "firewall" that neutralizes the oxidative assault of the host's immune attack. Schistosoma mansoni peroxiredoxins (Prx) are important parasite antioxidant proteins that play a crucial role in redox balance mechanisms. […] First, the proteins are essential for the parasite survival. […] Third, the protein(s) is amenable for study at the molecular level and can be produced in bacteria in large quantities, in soluble and active form. Inhibition of Prx activity was screened in a coupled-enzyme format with reducing equivalents being transferred from NADPH to […] intermediate via thioredoxin/glutathione reductase (TGR)-catalyzed reaction, then from thioredoxin to hydrogen peroxide via Prx-catalyzed electron transfer. A decrease in the fluorescence intensity of NADPH was used to measure the enzyme activity. Purified S. mansoni TGR and Prx were provided by Professor David L. Williams, Illinois State University.
NCGC Assay Protocol Summary:
100 mM phosphate buffer, pH 7.4, 10 mM EDTA, 0.01% Tween-20.
100 uM NADPH/25 nM TGR/700 uM GSH/50 nM Prx2 mixture in columns 1, 2, 5-48. Titration of control potassium antimonyl tartrate (PAT, from 1 mM, then 1:5) pin-transferred to lower half of column 2. Column 1 and upper half of column 2 are neutral (100% activity).
Three uL of reagents were dispensed to 1536-well Greiner black plates. Compounds and controls (20 nL) were transferred via Kalypsys PinTool. The plates were incubated for 15 min at room temperature, and then a 1 uL aliquot of 400 uM NADPH/700 uM GSH was added, immediately followed by a 1uL aliquot of 2.5 mM H2O2 (to start the reaction). The plate was transferred to ViewLux (Perkin-Elmer) High-throughput CCD imager where kinetic measurements (every 30 sec, for a total of 8 min) of NADPH fluorescence were taken using 365 nm excitation/450 nm emission filter set. During dispense, enzyme-containing reagent bottles were kept submerged into 4 deg C water bath to minimize degradation.
Keywords: NIH Roadmap, MLSCN, MLI, MLSMR, David Williams, Peroxyredoxin, Schistosoma mansoni, prx2, prx, , qHTS, NCGC
Potency is the fitted concentration of half-maximal effect.

SMILES	Potency
Cc1ccccc1Nc1nnc(SCC(=O)NCc2ccco2)s1	inactive: > 57 µM
Cc1nnc(SCC(=O)NCc2cccs2)[nH]c1=O	inactive: > 57 µM
CC(C)CN(C(=O)COC(=O)c1cc2ccccc2oc1=O)C1CCS(=O)(=O)C1 (stereo not drawn)	inactive: > 57 µM
CSc1nc(-c2ccccc2)nc2[nH]ccc(=O)c12	inactive: > 57 µM
Cc1sc2ncnc(N3CCN(c4ncccn4)CC3)c2c1C	inactive: > 57 µM
Cn1c(NCCN2CCOCC2)nc2c1c(=O)n(Cc1cccc(Cl)c1)c(=O)n2C	inactive: > 57 µM
CCOC(=O)c1c(C)n(C)c2ccc(OC)c(NC(=O)CN3CCN(C(=O)c4ccco4)CC3)c12	inactive: > 57 µM
O=S(=O)(c1ccccc1)N1CCN(S(=O)(=O)c2ccccc2)c2ccccc21	inactive: > 57 µM
CC(C)c1ccc(NC(=O)COC(=O)C2=COCCO2)cc1	inactive: > 57 µM
O=C(Cn1cccc1)NCc1cccs1	inactive: > 57 µM
Cc1cc(C(F)(F)F)nc(SCC(=O)NC2=NC(=O)C(C)S2)n1 (stereo not drawn)	inactive: > 57 µM
Cc1[nH]nc2c1C(c1ccccc1)C1=C(CC(C)(C)CC1=O)N2 (stereo not drawn)	inactive: > 57 µM
CC(=O)[C@@H]1CC[C@@H]2[C@H]3CC[C@H]4C[C@@H](O)CC[C@]4(C)[C@@H]3C(=O)C[C@]21C	inactive: > 57 µM
Nc1nc2ccc(OC(F)(F)F)cc2s1	inactive: > 57 µM and inactive: > 25.6 µM
CC1(C)CC(=O)C2=C(C1)OC(N)=C(C#N)C2c1ccccc1OC(=O)N1CCOCC1 (stereo not drawn)	inactive: > 57 µM
CC(=O)Nc1cccc(NC(=O)CSc2nnc(Cc3cccn3C)n2-c2ccc(F)cc2)c1	inactive: > 57 µM
CCC(C)C(NC(=O)OC(C)(C)C)C(=O)NCc1ccco1 (stereo not drawn)	inactive: > 57 µM
O=C(Cc1ccc(Cl)cc1)Nc1ccc(N2CCN(C(=O)c3ccco3)CC2)cc1	inactive: > 57 µM
Cc1c(OCC(=O)OC(C)C)ccc2c3c(c(=O)oc12)CCC3	inactive: > 57 µM
C[C@@H](C(=O)NCc1ccc(C(F)(F)F)nc1)[C@H]1C[C@]1(C)[C@H](NC(=O)OCc1ccccc1)c1ccccc1	inactive: > 57 µM
CC(=O)OCP(C)(=O)COC(C)=O	inactive: > 57 µM
Cc1cc(/C=C\c2ccc3cc(N(C)C)ccc3[n+]2C)c(C)n1-c1ccccc1	inactive: > 57 µM
CSc1ccc(S(=O)(=O)NCc2ccccc2Cl)cc1	inactive: > 57 µM
CCC(C)NC(=O)C1CCN(S(=O)(=O)c2cccnc2)CC1 (stereo not drawn)	inactive: > 57 µM

SMILES	Potency
N#CC1=C(N)Oc2c(oc(CO)cc2=O)C12C(=O)Nc1ccc(Cl)cc12 (stereo not drawn)	inactive: > 57 µM
O=C(CSc1nc(-c2cccs2)cc(C(F)(F)F)n1)NCCCn1ccnc1	inactive: > 57 µM
COc1ccc2cc(CN(CCO)C(=O)c3ccc(Br)cc3)c(=O)[nH]c2c1	inactive: > 57 µM
COc1ccc(N2CCN(C(=O)CC3NC4CCCCC4NC3=O)CC2)cc1 (stereo not drawn)	inactive: > 57 µM
COc1ccc(OCC(=O)Nc2cc(OC)cc(OC)c2)cc1	inactive: > 57 µM
COCCN(CCOC)C(=O)CCn1c(=O)oc2ccccc21	inactive: > 57 µM
Cc1ccc(NC(=O)Cn2nc(C)c3ccccc3c2=O)cc1F	inactive: > 57 µM
CSc1nc(N2CCOCC2)c2c3c(sc2n1)CCC3	inactive: > 57 µM
CCOCCCn1c(=N)c(C(=O)NCc2ccc3c(c2)OCO3)cc2c(=O)n3cccc(C)c3nc21	inactive: > 57 µM
CCN(CC)CCCN1C(=O)C(O)=C(C(=O)c2cc3cccc(OC)c3o2)C1c1ccncc1 (stereo not drawn)	inactive: > 57 µM
COc1ccccc1NC(=O)CSc1nccc(=O)[nH]1	inactive: > 57 µM
CCCc1cc(C(N)=O)c(NC(C)=O)s1	inactive: > 57 µM
CCN(C(=O)COc1cc(=O)n(CC)c2ccccc12)c1cc(Cl)ccc1OC	inactive: > 57 µM
NS(=O)(=O)c1ccc(NC(=O)c2ccccc2C(=O)N2CCCCC2)cc1	inactive: > 57 µM
CC[C@](C)(CN(C)C)OC(=O)c1ccccc1	inactive: > 57 µM
Cc1ccccc1CS(=O)(=O)Cc1ccc(C(=O)NCCCN2CCOCC2)o1	inactive: > 57 µM
O=C(O)CSc1nnc(Cn2c(=O)sc3ccccc32)n1-c1cccc(Cl)c1	inactive: > 57 µM
O=C1OCCN1/N=C\c1ccc([N+](=O)[O-])o1	inactive: > 57 µM
O=C(CCS(=O)(=O)c1ccc(Br)cc1)N1CCN(c2ccccc2F)CC1	inactive: > 57 µM
O=C(C(Cc1ccccc1)N1C(=O)C2C3C=CC(C3)C2C1=O)N1CCCCCC1 (stereo not drawn)	inactive: > 57 µM
COc1ccc(C2CC(=O)c3cnc(NC(=O)c4cccc(OC)c4)nc3C2)cc1 (stereo not drawn)	inactive: > 57 µM
CCOC(=O)c1ccc(NC(=O)CSc2nc3c(c(=O)n2CC)SC(C)C3)cc1 (stereo not drawn)	inactive: > 57 µM
CCSc1nnc(NC(=O)CSc2nnc(Cc3cccn3C)n2-c2ccc(C)cc2)s1	inactive: > 57 µM
COC(=O)c1cc(CSc2nc3ccc(C)cc3[nH]2)oc1C	inactive: > 57 µM

SMILES	Potency
Clc1ccc(-c2noc(CN3CCN(c4ccccc4)CC3)n2)cc1	inactive: > 57 µM
CN(C)C(CNc1nnnn1-c1ccccc1)c1ccco1 (stereo not drawn)	inactive: > 57 µM
CCC(C)(C)NC(=O)CC(c1ccc(OC)cc1)n1cccc1 (stereo not drawn)	inactive: > 57 µM
O=S(=O)(Nc1ccc(S(=O)(=O)N2CCCCC2)cc1)c1cccs1	inactive: > 57 µM
O=C(Cn1ncc2c1-c1ccccc1OC2)N1CCc2ccccc21	inactive: > 57 µM
Cc1ccc(S(=O)(=O)N[C@H](C(=O)N2CCC(C(=O)N3CCC[C@H]3C(=O)O)CC2)C(C)C)cc1	inactive: > 57 µM
CCn1c(CNc2ccc(OC)cc2)nnc1SCC(=O)N1CCCc2ccccc21	inactive: > 57 µM
C[C@@H]1C[C@H]2[C@@H]3C[C@H](F)C4=CC(=O)C=C[C@@]4(C)[C@]3(F)[C@H](O)C[C@]2(C)[C@@]1(O)C(=O)CO	inactive: > 57 µM
CCOC(=O)CN1CC23C=CC(O2)C(C(=O)NC2CCCCC2)C3C1=O (stereo not drawn)	inactive: > 57 µM
CC(=O)[C@@H]1CC[C@H]2[C@H]3CC[C@H]4C[C@@H](O)CC[C@]4(C)[C@@H]3C(=O)C[C@@]12C	inactive: > 57 µM
O=C1c2cccc(O)c2C(=O)c2c(O[C@@H]3O[C@H](CO)[C@@H](O)[C@H](O)[C@@H]3O)cccc21	active: 12.2 µM
COc1ccc(OCCSc2nnnn2C2CCCCC2)cc1	inactive: > 57 µM
COC(=O)c1ccc(CNC(=O)CSc2nc3sc(C)c(C)c3c(=O)n2C)o1	inactive: > 57 µM
Cc1ccc(SCc2nc(-c3cccnc3)no2)cc1	inactive: > 57 µM
Cn1c(Nn2cnnc2)nc2ccccc21	inactive: > 57 µM
CCN1CCN(C(=O)CS(=O)Cc2nc(-c3ccc(OC)cc3)oc2C)CC1 (stereo not drawn)	inactive: > 57 µM
NCCC[C@@H](N)C(=O)O	inactive: > 57 µM
Fc1cccc(CN2CCCCCCC2)c1	inactive: > 57 µM
Cc1nc(NCC2CCCO2)[nH]c(=O)c1CCC(C)C (stereo not drawn)	inactive: > 57 µM
O=C(OC1CCCCC1)c1ccc2c(c1)C1C=CCC1C(C(=O)O)N2 (stereo not drawn)	inactive: > 57 µM
O=C(O)c1ccc2c(c1)CC(c1ccccc1)OC2=O (stereo not drawn)	inactive: > 57 µM
CC(C)OCCCn1c(=S)[nH]c2ccc(N3CCOCC3)cc2c1=O	inactive: > 57 µM
CCOc1cc(C)c(Cl)cc1S(=O)(=O)N(C)C	inactive: > 57 µM
CCN(CC)S(=O)(=O)c1cccc(C(=O)Nc2ccc(Cl)cn2)c1	inactive: > 57 µM

SMILES	Potency
CCOc1ccccc1C(=O)N(Cc1cccs1)C1CCS(=O)(=O)C1 (stereo not drawn)	inactive: > 57 µM
CCCn1c(=O)c(C)cn2nc(N)nc12	inactive: > 57 µM
CCC[C@H]1C[C@H](C(=O)N[C@@H]([C@H]2O[C@@H](SC)[C@@H](O)[C@@H](O)[C@@H]2O)[C@H](C)Cl)N(C)C1	inactive: > 57 µM
CCc1ccc(Cn2nnc(C(=O)NCc3ccccc3OC)c2N)cc1	inactive: > 57 µM
O=C(O)C1CC=CCC1C(=O)NCc1cn2ccccc2n1 (stereo not drawn)	inactive: > 57 µM
CSc1ccccc1NC(=O)c1cc(CC(C)C)on1	inactive: > 57 µM
CC(Sc1nc2ccccc2s1)C(=O)N1CCOCC1 (stereo not drawn)	inactive: > 57 µM
O=C(CCSCCc1ccncc1)NCCCN1CCOCC1	inactive: > 57 µM
O=C(CCCn1c(=S)[nH]c2cc3c(cc2c1=O)OCO3)N1CCN(c2ccc(Cl)cc2)CC1	inactive: > 57 µM
COc1cc(NS(C)(=O)=O)c(OC)cc1NC(=O)c1cccc(F)c1	inactive: > 57 µM
Cn1c(CCN2CCCCC2)nc2cc(NS(=O)(=O)c3ccccc3)ccc21	inactive: > 57 µM
Cn1c(CCN2CCN(c3ccccc3)CC2)nc2cc(NC(=O)c3ccco3)ccc21	inactive: > 57 µM
COc1ccc(Cl)cc1NC(=O)C1CCCN(c2cc(C)nc3ncnn23)C1 (stereo not drawn)	inactive: > 57 µM
CCOc1cc(C2C(C(=O)OC(C)C)=C(C)N=C3SCCC(=O)N32)ccc1OC(C)=O (stereo not drawn)	inactive: > 57 µM
Cc1ccc(CNc2ccc(O)cc2)cc1	inactive: > 57 µM
CCCCOC(=O)C1=C(C)Nc2nnnn2C1c1ccc(OC)c(OC)c1OC (stereo not drawn)	inactive: > 57 µM
O=S(=O)(c1cccc2nsnc12)N1CCN(c2ncccn2)CC1	inactive: > 57 µM
NC(N)=NCCN1CCCCCCC1	inactive: > 57 µM
CCC(C)(C)NC(=O)C(c1ccc(C)o1)N(Cc1cccs1)C(=O)Cn1nnc2ccccc21 (stereo not drawn)	inactive: > 57 µM
CC(C)C(=O)N1CCN(C2=NS(=O)(=O)c3ccccc32)CC1	inactive: > 57 µM
Cc1oc(C(=O)Nc2ccc(O)cc2)cc1COc1ccccc1	inactive: > 57 µM
